Test results from the supplement of paper PMC10849652.
This is one part of the list.

Chains of the proteins cited; added tags and fusions are not shown. Lines headed by an entry give the natural chain unless they say otherwise; changes in a name come on top.
UniProt Q99805: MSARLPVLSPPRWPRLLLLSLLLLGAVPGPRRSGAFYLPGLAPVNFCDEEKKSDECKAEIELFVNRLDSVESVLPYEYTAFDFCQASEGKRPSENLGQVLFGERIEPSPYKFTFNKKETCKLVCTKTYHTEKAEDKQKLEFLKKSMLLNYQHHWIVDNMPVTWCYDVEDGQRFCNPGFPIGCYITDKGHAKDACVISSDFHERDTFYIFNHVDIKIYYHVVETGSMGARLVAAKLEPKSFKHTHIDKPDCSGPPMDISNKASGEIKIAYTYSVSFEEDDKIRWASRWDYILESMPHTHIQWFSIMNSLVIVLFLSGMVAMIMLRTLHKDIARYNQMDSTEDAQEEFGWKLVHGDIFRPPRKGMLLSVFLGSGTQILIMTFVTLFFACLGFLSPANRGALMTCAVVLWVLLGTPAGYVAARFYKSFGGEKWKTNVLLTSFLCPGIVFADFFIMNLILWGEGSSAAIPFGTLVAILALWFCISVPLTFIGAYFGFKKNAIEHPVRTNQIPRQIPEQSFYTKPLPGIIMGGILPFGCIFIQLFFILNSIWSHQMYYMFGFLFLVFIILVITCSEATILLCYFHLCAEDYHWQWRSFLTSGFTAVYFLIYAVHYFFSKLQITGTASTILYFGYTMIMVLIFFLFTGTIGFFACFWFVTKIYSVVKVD
UniProt Q9NV96: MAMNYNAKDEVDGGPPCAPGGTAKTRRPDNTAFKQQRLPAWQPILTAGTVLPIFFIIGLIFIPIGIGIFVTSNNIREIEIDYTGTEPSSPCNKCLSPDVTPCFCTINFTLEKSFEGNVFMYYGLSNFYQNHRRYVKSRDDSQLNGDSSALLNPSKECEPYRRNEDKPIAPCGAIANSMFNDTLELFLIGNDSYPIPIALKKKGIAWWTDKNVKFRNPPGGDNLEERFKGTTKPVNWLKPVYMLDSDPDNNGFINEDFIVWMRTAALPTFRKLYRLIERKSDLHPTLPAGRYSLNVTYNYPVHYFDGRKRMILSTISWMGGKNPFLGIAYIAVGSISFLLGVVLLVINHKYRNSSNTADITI
UniProt Q96JJ7: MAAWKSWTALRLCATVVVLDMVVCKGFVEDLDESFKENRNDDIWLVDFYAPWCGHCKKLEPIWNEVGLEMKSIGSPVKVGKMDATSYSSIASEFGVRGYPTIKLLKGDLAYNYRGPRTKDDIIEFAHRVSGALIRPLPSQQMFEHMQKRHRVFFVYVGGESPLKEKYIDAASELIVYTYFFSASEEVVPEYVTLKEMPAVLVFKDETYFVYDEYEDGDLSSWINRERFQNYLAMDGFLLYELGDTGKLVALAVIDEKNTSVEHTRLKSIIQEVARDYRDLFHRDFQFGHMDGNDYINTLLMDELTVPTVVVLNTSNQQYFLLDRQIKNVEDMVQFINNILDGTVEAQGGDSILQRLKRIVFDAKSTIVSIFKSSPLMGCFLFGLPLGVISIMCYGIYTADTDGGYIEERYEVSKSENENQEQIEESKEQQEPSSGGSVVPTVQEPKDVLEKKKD
UniProt Q9Y4G6: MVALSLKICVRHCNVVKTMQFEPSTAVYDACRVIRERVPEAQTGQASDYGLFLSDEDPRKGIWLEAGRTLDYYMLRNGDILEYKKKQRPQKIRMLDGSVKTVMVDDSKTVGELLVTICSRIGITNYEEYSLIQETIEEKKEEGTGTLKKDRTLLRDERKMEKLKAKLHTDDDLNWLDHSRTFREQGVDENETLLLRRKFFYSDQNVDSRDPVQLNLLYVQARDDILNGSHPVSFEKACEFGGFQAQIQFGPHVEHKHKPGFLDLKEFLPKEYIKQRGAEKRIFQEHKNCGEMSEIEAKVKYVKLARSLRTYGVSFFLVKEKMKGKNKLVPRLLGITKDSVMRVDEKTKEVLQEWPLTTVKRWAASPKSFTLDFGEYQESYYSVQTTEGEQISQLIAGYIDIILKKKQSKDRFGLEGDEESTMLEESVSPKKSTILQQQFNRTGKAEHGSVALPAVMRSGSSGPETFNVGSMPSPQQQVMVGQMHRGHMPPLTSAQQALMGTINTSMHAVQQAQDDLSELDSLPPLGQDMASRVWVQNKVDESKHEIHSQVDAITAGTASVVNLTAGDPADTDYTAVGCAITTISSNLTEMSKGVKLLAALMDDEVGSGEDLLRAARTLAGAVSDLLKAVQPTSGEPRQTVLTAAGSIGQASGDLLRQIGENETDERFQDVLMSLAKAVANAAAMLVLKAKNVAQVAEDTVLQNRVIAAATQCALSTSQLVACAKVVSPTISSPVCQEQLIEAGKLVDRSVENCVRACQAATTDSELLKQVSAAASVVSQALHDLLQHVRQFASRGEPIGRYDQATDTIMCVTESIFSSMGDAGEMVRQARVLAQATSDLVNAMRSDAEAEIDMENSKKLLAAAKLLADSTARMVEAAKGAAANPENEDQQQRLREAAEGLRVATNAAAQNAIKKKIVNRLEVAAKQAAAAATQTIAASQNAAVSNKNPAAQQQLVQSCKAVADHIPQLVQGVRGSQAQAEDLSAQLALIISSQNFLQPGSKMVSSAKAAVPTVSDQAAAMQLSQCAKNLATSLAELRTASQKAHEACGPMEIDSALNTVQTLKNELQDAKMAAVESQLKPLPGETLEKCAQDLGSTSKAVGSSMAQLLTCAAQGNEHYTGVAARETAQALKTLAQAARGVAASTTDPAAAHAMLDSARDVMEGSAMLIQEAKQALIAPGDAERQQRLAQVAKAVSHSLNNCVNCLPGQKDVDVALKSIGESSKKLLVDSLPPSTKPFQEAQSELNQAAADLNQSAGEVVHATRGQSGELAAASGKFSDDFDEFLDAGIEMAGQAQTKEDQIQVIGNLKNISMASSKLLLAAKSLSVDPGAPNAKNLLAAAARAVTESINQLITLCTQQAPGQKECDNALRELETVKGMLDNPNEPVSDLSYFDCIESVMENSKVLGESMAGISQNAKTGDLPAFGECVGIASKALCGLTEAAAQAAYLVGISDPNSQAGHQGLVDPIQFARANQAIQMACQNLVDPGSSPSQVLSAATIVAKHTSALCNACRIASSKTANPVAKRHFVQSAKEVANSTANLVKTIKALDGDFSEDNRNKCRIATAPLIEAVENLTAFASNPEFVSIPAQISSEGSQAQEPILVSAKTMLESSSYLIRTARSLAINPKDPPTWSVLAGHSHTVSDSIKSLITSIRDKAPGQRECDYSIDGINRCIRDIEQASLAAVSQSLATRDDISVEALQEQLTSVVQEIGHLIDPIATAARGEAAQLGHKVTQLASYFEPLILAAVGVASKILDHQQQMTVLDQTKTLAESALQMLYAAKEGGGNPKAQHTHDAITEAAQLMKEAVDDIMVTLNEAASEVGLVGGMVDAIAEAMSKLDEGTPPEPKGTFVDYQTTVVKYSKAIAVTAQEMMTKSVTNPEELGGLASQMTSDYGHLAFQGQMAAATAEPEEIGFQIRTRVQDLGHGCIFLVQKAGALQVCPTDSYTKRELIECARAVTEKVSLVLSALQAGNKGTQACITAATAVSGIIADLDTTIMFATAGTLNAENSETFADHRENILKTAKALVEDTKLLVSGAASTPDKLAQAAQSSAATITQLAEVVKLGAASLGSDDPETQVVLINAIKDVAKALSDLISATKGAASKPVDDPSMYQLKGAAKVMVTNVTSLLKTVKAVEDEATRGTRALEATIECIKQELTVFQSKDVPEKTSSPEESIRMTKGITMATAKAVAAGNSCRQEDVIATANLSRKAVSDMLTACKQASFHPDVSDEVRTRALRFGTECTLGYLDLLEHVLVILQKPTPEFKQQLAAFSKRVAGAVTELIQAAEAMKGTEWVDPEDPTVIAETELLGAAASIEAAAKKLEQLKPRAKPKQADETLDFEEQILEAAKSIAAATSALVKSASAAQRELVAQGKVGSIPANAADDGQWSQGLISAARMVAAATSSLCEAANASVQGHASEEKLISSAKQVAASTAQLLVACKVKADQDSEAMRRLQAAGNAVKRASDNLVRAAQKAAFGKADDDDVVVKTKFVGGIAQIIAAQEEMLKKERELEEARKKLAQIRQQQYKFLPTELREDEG
UniProt Q5T4D3: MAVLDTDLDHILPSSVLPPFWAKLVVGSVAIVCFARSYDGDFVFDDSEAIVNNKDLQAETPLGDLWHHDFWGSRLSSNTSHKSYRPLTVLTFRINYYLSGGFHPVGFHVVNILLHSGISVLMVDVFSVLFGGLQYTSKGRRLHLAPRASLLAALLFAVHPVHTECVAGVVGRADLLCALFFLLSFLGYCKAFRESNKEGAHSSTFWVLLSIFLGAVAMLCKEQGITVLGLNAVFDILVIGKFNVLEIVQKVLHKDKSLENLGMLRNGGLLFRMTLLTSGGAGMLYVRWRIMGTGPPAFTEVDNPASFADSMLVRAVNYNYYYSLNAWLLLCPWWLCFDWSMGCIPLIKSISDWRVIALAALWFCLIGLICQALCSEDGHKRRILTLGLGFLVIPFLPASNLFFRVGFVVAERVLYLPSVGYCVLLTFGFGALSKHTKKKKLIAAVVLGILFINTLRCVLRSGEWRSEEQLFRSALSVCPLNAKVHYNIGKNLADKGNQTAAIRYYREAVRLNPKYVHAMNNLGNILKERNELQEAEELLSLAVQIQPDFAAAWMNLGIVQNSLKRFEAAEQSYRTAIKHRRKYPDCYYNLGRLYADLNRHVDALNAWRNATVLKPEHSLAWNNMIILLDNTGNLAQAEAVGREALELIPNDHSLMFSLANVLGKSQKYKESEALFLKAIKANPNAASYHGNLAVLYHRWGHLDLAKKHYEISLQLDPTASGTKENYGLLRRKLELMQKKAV
UniProt Q9NVV0: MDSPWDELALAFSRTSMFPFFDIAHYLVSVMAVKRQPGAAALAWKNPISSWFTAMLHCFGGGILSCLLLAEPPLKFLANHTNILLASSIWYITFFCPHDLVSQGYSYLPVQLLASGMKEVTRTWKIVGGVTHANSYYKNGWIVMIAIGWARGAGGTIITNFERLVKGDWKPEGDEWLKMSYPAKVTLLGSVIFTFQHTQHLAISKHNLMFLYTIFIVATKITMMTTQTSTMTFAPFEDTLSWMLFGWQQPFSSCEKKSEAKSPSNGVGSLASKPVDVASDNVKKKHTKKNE
UniProt Q92544: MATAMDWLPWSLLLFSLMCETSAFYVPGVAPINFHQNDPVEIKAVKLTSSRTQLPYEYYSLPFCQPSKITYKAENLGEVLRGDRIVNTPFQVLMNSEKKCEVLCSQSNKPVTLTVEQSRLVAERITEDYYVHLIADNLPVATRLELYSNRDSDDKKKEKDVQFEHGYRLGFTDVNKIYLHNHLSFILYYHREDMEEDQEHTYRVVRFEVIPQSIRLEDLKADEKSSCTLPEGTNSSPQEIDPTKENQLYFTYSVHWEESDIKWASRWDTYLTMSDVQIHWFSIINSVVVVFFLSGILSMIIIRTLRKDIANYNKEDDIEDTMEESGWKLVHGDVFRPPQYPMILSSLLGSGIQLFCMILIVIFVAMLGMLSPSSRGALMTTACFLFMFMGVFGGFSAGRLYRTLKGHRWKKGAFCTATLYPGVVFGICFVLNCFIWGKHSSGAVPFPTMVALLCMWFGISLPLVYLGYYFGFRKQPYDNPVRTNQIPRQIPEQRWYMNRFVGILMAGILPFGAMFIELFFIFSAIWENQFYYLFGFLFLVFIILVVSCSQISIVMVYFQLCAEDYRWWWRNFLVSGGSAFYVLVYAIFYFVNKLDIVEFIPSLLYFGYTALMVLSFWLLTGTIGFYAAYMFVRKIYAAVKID
UniProt P63313: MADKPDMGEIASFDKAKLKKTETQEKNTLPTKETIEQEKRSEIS
UniProt Q5T3F8: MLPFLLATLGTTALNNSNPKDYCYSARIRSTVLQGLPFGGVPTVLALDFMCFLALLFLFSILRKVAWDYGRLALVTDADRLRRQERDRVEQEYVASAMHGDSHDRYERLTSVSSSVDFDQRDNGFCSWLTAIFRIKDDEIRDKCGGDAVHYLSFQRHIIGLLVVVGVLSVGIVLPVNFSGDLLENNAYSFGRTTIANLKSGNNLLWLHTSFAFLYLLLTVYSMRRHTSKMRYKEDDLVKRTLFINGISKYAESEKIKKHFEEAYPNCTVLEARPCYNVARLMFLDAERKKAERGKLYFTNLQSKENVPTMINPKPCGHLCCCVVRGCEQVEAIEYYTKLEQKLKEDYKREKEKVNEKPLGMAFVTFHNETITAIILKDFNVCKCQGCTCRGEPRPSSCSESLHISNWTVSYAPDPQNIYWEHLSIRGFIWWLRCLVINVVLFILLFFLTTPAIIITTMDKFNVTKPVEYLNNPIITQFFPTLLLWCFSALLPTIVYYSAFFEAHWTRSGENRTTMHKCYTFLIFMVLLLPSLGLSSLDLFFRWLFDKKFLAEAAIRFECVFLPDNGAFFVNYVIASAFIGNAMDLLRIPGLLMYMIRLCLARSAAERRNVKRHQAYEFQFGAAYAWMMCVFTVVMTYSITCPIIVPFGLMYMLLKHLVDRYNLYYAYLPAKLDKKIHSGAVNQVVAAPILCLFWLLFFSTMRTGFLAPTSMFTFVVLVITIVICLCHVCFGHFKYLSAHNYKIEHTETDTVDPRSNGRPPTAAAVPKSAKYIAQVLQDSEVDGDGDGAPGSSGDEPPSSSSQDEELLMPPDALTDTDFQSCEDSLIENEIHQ

Columns and labels:
Assay in all cases: log2 fold change, soluble protein after heating vs DMSO (PISA); higher = thermal stabilisation; K562 cells, 10 uM, 30 min; active = over 0.2 and 3.5 SD of the protein, either way, in both replicates (recomputed)
[1] = compound: COC1=CC=C(C=C1)CN2C=CC3=C2C=C(C=C3)C(=O)NO
Procedure, shortened: (§1)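 Soluble protein was quantified by TMTpro 16plex LC-MS/MS after channel sums were equalised. It was obtained as the supernatant after 21,000xg for 90 min from pooled aliquots of K562 cells (2×10^6 cells/mL, 10 μM compound, 30 min) heated for 3 min across 48°C-58°C and extracted in PBS with 0.5% NP-40 at 4°C. Thermal stability values are relative to control samples and come from duplicates. They are given as log2 fold changes.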

[2] = compound: CON(C)C(=O)N1N=C(c2cc(F)ccc2F)S[C@@]1(CCCN)c1ccccc1 [filanesib]
Procedure, shortened: as §1

[3] = compound: CO[C@H]1C[C@@H]2CC[C@@H](C)[C@@](O)(O2)C(=O)C(=O)N2CCCC[C@H]2C(=O)O[C@H]([C@H](C)C[C@@H]2CC[C@H](n3cnnn3)[C@H](OC)C2)CC(=O)[C@H](C)/C=C(\C)[C@@H](O)[C@@H](OC)C(=O)[C@H](C)C[C@H](C)/C=C/C=C/C=C/1C [zotarolimus]
Procedure, shortened: as §1

[4] = compound: COc1cc(C(=O)O)ccc1NC(=O)[C@@H]1N[C@@H](CC(C)(C)C)[C@](C#N)(c2ccc(Cl)cc2F)[C@H]1c1cccc(Cl)c1F [idasanutlin]
Procedure, shortened: as §1

[5] = compound: COc1cc(Nc2ncc3c(n2)-c2ccc(Cl)cc2C(c2c(F)cccc2OC)=NC3)ccc1C(=O)O [alisertib]
Procedure, shortened: as §1

[6] = compound: COc1cc2nc(-c3cc(F)ccc3O)nc(N[C@@H]3CNC[C@H]3C(C)(C)O)c2cc1OC
Procedure, shortened: as §1

[7] = compound: COc1cc2ncnc(Nc3ccc(F)c(Cl)c3)c2cc1OCCCN1CCOCC1 [gefitinib]
Procedure, shortened: as §1

[8] = compound: COc1cccc2cc(-c3nc([C@H]4CC[C@H](C(=O)O)CC4)n4ncnc(N)c34)[nH]c12
Procedure, shortened: as §1

[9] = compound: CS(=O)(=O)CCNCc1ccc(-c2ccc3ncnc(Nc4ccc(OCc5cccc(F)c5)c(Cl)c4)c3c2)o1 [lapatinib]
Procedure, shortened: as §1

[10] = compound: CS(=O)(=O)N1CCN(Cc2cc3nc(-c4cccc5[nH]ncc45)nc(N4CCOCC4)c3s2)CC1 [pictilisib]
Procedure, shortened: as §1

Measured: log2 fold change

TM9SF2 (UniProt Q99805)
inactive: [1] -0.06 | [2] -0.073 | [3] 0.043 | [4] -0.103 | [5] -0.01 | [6] -0.061 | [7] 0.009 | [8] 0.007 | [9] 0.011 | [10] 0.085

TMEM30A (UniProt Q9NV96)
inactive: [1] -0.098 | [2] 0.057 | [3] -0.098 | [4] 0.02 | [5] -0.048 | [6] -0.093 | [7] -0.007 | [8] -0.009 | [9] -0.043 | [10] -0.031

TMED9 (UniProt Q9BVK6)
inactive: [1] -0.009 | [2] -0.077 | [3] 0.018 | [4] -0.004 | [5] -0.051 | [6] -0.008 | [7] 0 | [8] 0.013 | [9] 0.026 | [10] -0.009

TMX3 (UniProt Q96JJ7)
inactive: [1] -0.072 | [2] -0.051 | [3] -0.011 | [4] 0.014 | [5] -0.081 | [6] 0.083 | [7] 0.001 | [8] 0.015 | [9] 0.007 | [10] -0.034

TMEM126A (UniProt Q9H061)
inactive: [1] 0.015 | [2] -0.055 | [3] 0 | [4] -0.022 | [5] -0.06 | [6] -0.065 | [7] 0.034 | [8] 0.047 | [9] 0.031 | [10] 0.147

TMEM43 (UniProt Q9BTV4)
inactive: [1] -0.072 | [2] -0.028 | [3] 0.031 | [4] 0.025 | [5] -0.053 | [6] -0.064 | [7] -0.007 | [8] -0.015 | [9] 0.049 | [10] 0.031

TNFRSF10B (UniProt O14763)
inactive: [1] -0.054 | [2] 0.099 | [3] -0.005 | [4] 0.033 | [5] -0.219 | [6] 0.046 | [7] 0.044 | [8] 0.049 | [9] -0.02 | [10] 0.101

TLN2 (UniProt Q9Y4G6)
inactive: [1] 0.024 | [2] 0.035 | [3] 0.052 | [4] -0.01 | [5] 0.234 | [6] -0.018 | [7] -0.053 | [8] -0.139 | [9] 0.065 | [10] -0.056

TMEM106B (UniProt Q9NUM4)
inactive: [1] 0.021 | [2] 0.06 | [3] -0.082 | [4] -0.032 | [5] -0.012 | [6] -0.027 | [7] 0.04 | [8] 0.057 | [9] -0.005 | [10] 0.027

TMEM63A (UniProt O94886)
inactive: [1] -0.003 | [2] 0.003 | [3] 0.047 | [4] -0.029 | [5] -0.106 | [6] 0.09 | [7] 0.057 | [8] 0 | [9] 0.056 | [10] 0.114

TNFAIP8 isoform 4 (UniProt O95379)
inactive: [1] 0.027 | [2] -0.015 | [3] 0.085 | [4] -0.055 | [5] -0.01 | [6] 0.046 | [7] 0.028 | [8] 0.041 | [9] 0.065 | [10] -0.027

TMTC4 isoform 3 (UniProt Q5T4D3)
inactive: [1] -0.17

TMEM38B (UniProt Q9NVV0)
inactive: [1] -0.123 | [2] 0.073 | [3] -0.05 | [4] -0.019 | [5] -0.011 | [6] -0.03 | [7] 0.004 | [8] 0.123 | [9] -0.089 | [10] 0.011

TMEM165 (UniProt Q9HC07)
inactive: [1] -0.112 | [2] -0.009 | [3] -0.137 | [4] -0.035 | [5] -0.045 | [6] -0.056 | [7] 0.018 | [8] -0.047 | [9] 0.022 | [10] 0.092

6 successive records already listed, quoted:
TNFRSF10B (UniProt O14763)
inactive: [1] -0.054 | [2] 0.099 | [3] -0.005 | [4] 0.033 | [5] -0.219 | [6] 0.046 | [7] 0.044 | [8] 0.049 | [9] -0.02 | [10] 0.101

TLN2 (UniProt Q9Y4G6)
inactive: [1] 0.024 | [2] 0.035 | [3] 0.052 | [4] -0.01 | [5] 0.234 | [6] -0.018 | [7] -0.053 | [8] -0.139 | [9] 0.065 | [10] -0.056

TMEM106B (UniProt Q9NUM4)
inactive: [1] 0.021 | [2] 0.06 | [3] -0.082 | [4] -0.032 | [5] -0.012 | [6] -0.027 | [7] 0.04 | [8] 0.057 | [9] -0.005 | [10] 0.027

TMEM63A (UniProt O94886)
inactive: [1] -0.003 | [2] 0.003 | [3] 0.047 | [4] -0.029 | [5] -0.106 | [6] 0.09 | [7] 0.057 | [8] 0 | [9] 0.056 | [10] 0.114

TNFAIP8 isoform 4 (UniProt O95379)
inactive: [1] 0.027 | [2] -0.015 | [3] 0.085 | [4] -0.055 | [5] -0.01 | [6] 0.046 | [7] 0.028 | [8] 0.041 | [9] 0.065 | [10] -0.027

TMTC4 isoform 3 (UniProt Q5T4D3)
inactive: [1] -0.17

Continuation:

TMEM120A (UniProt Q9BXJ8)
inactive: [1] -0.2 | [2] -0.049 | [3] 0.038 | [4] -0.217 | [5] -0.08 | [6] -0.08 | [7] 0.113 | [8] -0.02 | [9] 0.06 | [10] -0.094

TMBIM6 isoform 2 (UniProt P55061)
active: [4] -0.51 | [6] -0.535
inactive: [1] -0.007 | [2] -0.233 | [3] -0.099 | [5] -0.27 | [7] -0.087 | [8] -0.165 | [9] -0.196

TM9SF1 (UniProt O15321)
inactive: [1] -0.089 | [2] 0.133 | [3] 0.076 | [4] -0.069 | [5] -0.104 | [6] 0.231 | [7] 0.04 | [8] 0.125 | [9] 0.065 | [10] 0.174

TMTC3 (UniProt Q6ZXV5)
inactive: [1] -0.092 | [2] 0.01 | [3] 0.006 | [4] -0.03 | [5] 0.105 | [6] -0.085 | [7] -0.007 | [8] -0.041 | [9] 0.053 | [10] 0.032

TMED1 (UniProt Q13445)
inactive: [1] -0.066 | [2] -0.076 | [3] -0.023 | [4] -0.184 | [5] -0.063 | [6] -0.059 | [7] 0.061 | [8] 0.041 | [9] 0.162 | [10] 0.062

TMPO (UniProt P42167)
inactive: [1] -0.059 | [2] -0.052 | [3] -0.048 | [4] -0.028 | [5] 0.114 | [6] 0.019 | [7] 0.074 | [8] 0.015 | [9] -0.039 | [10] -0.054

TM9SF4 (UniProt Q92544)
inactive: [1] 0.048 | [2] -0.04 | [3] 0.036 | [4] 0.004 | [5] -0.031 | [6] -0.023 | [7] 0.086 | [8] 0.004 | [9] 0.274 | [10] -0.161

TM7SF3 (UniProt Q9NS93)
inactive: [1] -0.002 | [2] -0.218 | [3] -0.042 | [4] -0.015 | [5] -0.217 | [6] 0.101 | [7] -0.066 | [8] 0.248 | [9] 0.014

TMEM179B (UniProt Q7Z7N9)
inactive: [1] -0.019 | [2] -0.162 | [3] -0.205 | [4] 0.088 | [5] -0.007 | [6] -0.03 | [7] 0.039 | [8] 0.175 | [9] 0.032 | [10] 0.036

TMSB10 (UniProt P63313)
inactive: [1] 0.005 | [2] 0.091 | [3] 0.112 | [4] -0.083 | [5] -0.027 | [6] -0.049 | [7] 0.019 | [8] 0.023 | [9] -0.17 | [10] 0.125

TMC1 (UniProt Q8TDI8)
inactive: [1] -0.348 | [2] -0.146 | [3] -0.042 | [4] -0.345 | [5] 0.143 | [6] -0.092 | [7] -0.046 | [8] 0.039 | [9] -0.011 | [10] 0.047

TMPO (UniProt P42166)
inactive: [1] -0.002 | [2] -0.077 | [3] -0.066 | [4] 0.183 | [5] -0.076 | [6] 0.014 | [7] 0.028 | [8] 0.006 | [9] -0.081 | [10] -0.044

TMPPE (UniProt Q6ZT21)
inactive: [1] 0.057 | [2] -0.038 | [3] 0.01 | [4] -0.019 | [5] -0.055 | [6] 0.03 | [7] 0.009 | [8] 0.01 | [9] -0.018 | [10] 0.129

TMCO1 (UniProt Q9UM00)
inactive: [1] -0.142 | [2] -0.148 | [3] -0.001 | [4] 0.016 | [5] -0.036 | [6] -0.098 | [7] 0.002 | [8] 0.048 | [9] -0.075 | [10] -0.021

TMX1 (UniProt Q9H3N1)
inactive: [1] -0.034 | [2] -0.025 | [3] 0.001 | [4] -0.005 | [5] -0.079 | [6] 0.041 | [7] 0.038 | [8] 0.016 | [9] -0.013 | [10] 0.017

TMEM63B (UniProt Q5T3F8)
inactive: [1] -0.125 | [2] -0.089 | [3] -0.018 | [4] 0.011 | [5] -0.037 | [6] -0.028 | [7] -0.03 | [8] -0.028 | [9] 0.032 | [10] 0.003
